# Measured values: PubChem BioAssay AID504648 (National Center for Advancing Translational Sciences (NCATS), 2011)
# The whole screen tested about 390,000 compounds, of which about 610 (0.16%) were called active. Inconclusive results, whose numbers are uncertain, are shown with a selection of clear calls. Calls follow the shape of the dose curve; as a rule, active = well fitted inhibition curve with a large enough effect; inconclusive = small, poorly fitted or top-dose-only effect, or effect the other way, or another doubt; inactive = no such curve, though single readings can be large or run the other way. Where the call is inconclusive, the potency comes from a doubtful curve fit.
# Assay: Nrf2 qHTS screen for inhibitors: counterscreen for cytotoxicity
# Settings: A549 ARE-Fluc cells, CellTiter-Fluor viability, 18-24 h; activity change, negative = cytotoxicity: at 46 µM (top of the series)
# How it was run: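 A549 ARE-Fluc cells in 5% FBS OPTI-MEM, 5000 cells/well, rested 2 h then exposed to compounds in concentration-response for 18-24 h at 37 °C. Viability by CellTiter-Fluor fluorescence (Ex 405/Em 525) after 30 min; luciferase luminescence (BugLite, 15 min, RT) read afterwards.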
# % is scaled to controls: 0 for no effect and ±100 for the full control effect; potency is read from the fitted curve at half-maximal effect.
SMILES,Potency,"activity change, negative = cytotoxicity"
CCNc1nc(SCC(=O)Nc2ccc(Cl)c(Cl)c2)nc(N2CCOCC2)n1,"inconclusive: 32.6 µM [falling, partial curve, poor fit]",
CCOc1cc(N2CCOCC2)c(OCC)cc1NC(=O)CSc1ccccc1C(=O)O,"inconclusive: 20.6 µM [activator, partial curve, poor fit]",
COc1ccccc1CNCc1ccc(OC)c(OC)c1OC,"inconclusive: 29.1 µM [activator, partial curve, poor fit]",
Cc1cccc(C(=O)NCC(=O)N2CCN(c3ccccn3)CC2)c1,,inactive: 13.9%
C=CCNc1oc(-c2ccc(OCC)cc2)nc1C#N,,inactive: 0% [at 1.84 µM]
Cc1n[nH]c(C)c1N=Nc1ccc(Br)cc1,,inactive: -8.74%
O=C(NN1C(=O)/C(=C/c2ccc(O)c(O)c2)SC1=S)c1ccccc1,"inconclusive: 25.9 µM [falling, single point]",
O=C(Nc1ccc(F)cc1)c1cnc(-c2ccccc2)nc1-c1ccccc1,"inconclusive: 23.1 µM [falling, single point]",
O=C(c1ccc2c(c1)N(Cc1ccc(Cl)cc1)C(=O)c1ccccc1S2=O)N1CCC(Cc2ccccc2)CC1 (configuration not stated),,inactive: -2.68%
CCOC(=O)/C(=N\Nc1ccc(C(C)=O)cc1)c1csc(Nc2ccccc2)n1,"inconclusive: 25.9 µM [falling, partial curve, poor fit]",
O=C(Cc1cccs1)N1CCC(c2nc3c(nnn3Cc3ccccc3Cl)c(=O)[nH]2)CC1,"inconclusive: 5.8 µM [falling, single point]",
Cc1ccc(C)c(N2CCN(C(=O)CCc3nc(-c4ccccc4)no3)CC2)c1,,inactive: 7.51%
COCCCn1c(=O)c2sccc2n2c(CCCC(=O)Nc3cccc(C(F)(F)F)c3)nnc12,,inactive: -9.45%
CC1CCCCN1S(=O)(=O)c1ccc(C(=O)Nc2nnc(-c3ccccc3Cl)o2)cc1 (configuration not stated),"inconclusive: 9.2 µM [falling, partial curve, poor fit]",
O=C(O)c1ccc(-n2cccc2/C=C2/SC(=O)N(CC(=O)N3CCCC3)C2=O)cc1,"inconclusive: 16.4 µM [falling, partial curve, poor fit]",
CCOc1ccc(N(C)S(=O)(=O)c2ccc(C)c(C(=O)NCCc3ccc(OC)cc3)c2)cc1,,inactive: -1.07%
O=C(Cc1cn(Cc2cccc(Cl)c2)c2ccccc12)N1CCCCCC1,"inconclusive: 29.1 µM [falling, single point]",
CC(O)CN(CC(C)O)c1ccc2c(c1)Cc1cc([N+](=O)[O-])ccc1-2 (configuration not stated),"inconclusive: 32.6 µM [falling, partial curve, poor fit]",
O=C(CCCN1C(=O)/C(=C/c2ccccc2OC(F)F)SC1=S)Nc1cccnc1,"inconclusive: 29.1 µM [falling, single point]",
O=C(/C=C/c1ccccc1)N1CCN(S(=O)(=O)c2ccc(F)cc2)CC1,,inactive: -2.43%
C=CCn1c(O)c(C(CC)=NCc2cccnc2)c(=O)[nH]c1=O,,inactive: 7.32%
N=c1c2c(-c3ccccc3)c(-c3ccccc3)n(Cc3ccccc3)c2ncn1CCCn1ccnc1,"inconclusive: 29.1 µM [falling, single point]",
CCn1cc(S(=O)(=O)c2cccc(Cl)c2)c(=O)c2cc(F)c(N3CCN(C)CC3)cc21,"inconclusive: 18.4 µM [falling, single point]",

SMILES,Potency,"activity change, negative = cytotoxicity"
O=c1cc(O)nc(SCc2ccccc2)n1-c1ccc(Cl)cc1,,inactive: 1.41%
COc1ccc(OC)c(CNC(=O)c2ccc(NC(=O)c3nsc4ccccc34)cc2)c1,"inconclusive: 25.9 µM [falling, partial curve, poor fit]",
CCC1=NN2C(=N)/C(=C\c3cccn3-c3ccc(C)cc3C)C(=O)N=C2S1,"inconclusive: 5.8 µM [falling, partial curve, poor fit]",
CNC(=O)c1c(NC(=O)c2nc(SCc3ccc(C)cc3)ncc2Cl)sc2c1CCCC2,"inconclusive: 2.91 µM [falling, full curve, poor fit]",
CCCS(=O)(=O)c1ncc(Cl)c(C(=O)Nc2c(C(=O)Nc3ccccc3)oc3ccccc23)n1,"inconclusive: 16.4 µM [falling, single point]",
Cc1ccc(-n2ncc(C(=O)NC3CCCCC3)c2C2CCN(C(=O)OC(C)(C)C)CC2)cc1,,inactive: 6.64%
Cc1ccc(NC(=S)NC(=O)c2ccc(-c3ccccc3)cc2)c(C)c1,"inconclusive: 23.1 µM [falling, partial curve, poor fit]",
COC(=O)c1cccc(NC(=O)Nc2ccc(Cl)c(Cl)c2)c1,"inconclusive: 18.4 µM [falling, single point]",
COc1ccc(CNC(=O)CCc2ccc(S(=O)(=O)N3CCCCCC3)cc2)cc1OC,,inactive: 3.64%
Cc1cc(C)n(-c2cc(N3CCN(C(=O)c4cccc(Br)c4)CC3)ccc2[N+](=O)[O-])n1,"inconclusive: 23.1 µM [falling, single point]",
Cc1ccc(NS(=O)(=O)c2ccc(C(=O)NNC(=O)c3ccccc3O)cc2)cc1,,inactive: -6.52%
Cc1cc(C(=O)N2CCN(c3ncccn3)CC2)sc1-c1ccccc1,,inactive: 4.3%
CC(C)(C)NCC(=Cc1ccccc1)C(=O)c1ccccc1,"inconclusive: 23.1 µM [falling, single point]",
CC(C)OCCCN1C(=O)c2[nH]nc(-c3ccccc3O)c2C1c1ccc(OCc2ccccc2)cc1 (configuration not stated),"inconclusive: 23.1 µM [falling, partial curve, poor fit]",
CCOC(=O)C1(CC2CCCCO2)CCN(Cc2cc3ccccc3[nH]2)CC1 (configuration not stated),"inconclusive: 16.4 µM [falling, partial curve, poor fit]",
COc1ccc(-c2ccc3ncnc(NCC4CCCO4)c3c2)cc1OC (configuration not stated),,inactive: -12.7%
Cc1oc(-c2ccccc2)nc1CNC(=O)Nc1ccccc1,,inactive: -0.757%
Cc1cccc(NC(=S)N/N=C2/CCCCc3ccccc32)c1,"inconclusive: 9.2 µM [activator, partial curve, poor fit]",
CCOC(=O)c1ccccc1NC(=O)CCc1c(C)nc2ncnn2c1C,"inconclusive: 18.4 µM [falling, single point]",
COc1cc2nc(N(CCCN(C)C)C(=O)c3ccc(S(=O)(=O)N4CCc5ccccc54)cc3)sc2cc1OC,,inactive: -4.65%
CCN(CC)CCNC(=O)c1ccc2c(c1NCCO)C(=O)c1ccccc1C2=O,"inconclusive: 2.91 µM [falling, full curve]",
O=c1[nH]c(-c2ccccn2)nc2sc(-c3ccccc3)cc12,"inconclusive: 2.06 µM [falling, partial curve]",
O=C1C(Cl)=C(NCCN2CCCCC2)C(=O)c2ccccc21,"inconclusive: 23.1 µM [falling, single point]",

SMILES,Potency,"activity change, negative = cytotoxicity"
O=C1C=CC(=O)c2c(O)c(CO)c(CO)c(O)c21,active: 16.4 µM,
Cc1nc2ccccn2c1C(=O)/C=C/c1ccc(F)cc1,"inconclusive: 23.1 µM [falling, partial curve, poor fit]",
Cc1oc2c(CN3CCOCC3)c(O)ccc2c(=O)c1-c1ccccc1,,inactive: -6.06%
COc1ccc(CCNC(=O)NCc2noc3ccc(C)cc23)c(OC)c1,,inactive: 1.35%
CC1CCc2nc3ncn(CC(=O)Nc4cccc(C#N)c4)c(=O)c3cc2C1 (configuration not stated),,inactive: -26.3%
Cc1cc([N+](=O)[O-])ccc1NCc1ccc2c(c1)OCCO2,"inconclusive: 29.1 µM [falling, partial curve, poor fit]",
N#CCCn1cc(C(=O)Nc2ccc(C(=O)O)cc2)c(-c2cccs2)n1,,inactive: -2.95%
O=c1n(Cc2ccccc2)c2cc(Cl)cnc2n1Cc1ccccc1,,inactive: 21.5%
COc1ccc(Cl)cc1NC(=O)CCCn1c(C)c2cnn(-c3ccccc3)c(=O)c2c1C,"inconclusive: 18.4 µM [falling, partial curve, poor fit]",
COc1ccc(NC(=O)CCNS(=O)(=O)c2cccc3nsnc23)cc1OC,"inconclusive: 18.4 µM [activator, partial curve, poor fit]",
COc1ccc(C2C=C(C34CC5CC(CC(C5)C3)C4)NC(=S)N2)cc1OC (configuration not stated),,inactive: -8.42%
CC12C=CC(=O)C=C1CCC1C3CCC(O)(C(=O)CO)C3(C)CC(O)C12F (configuration not stated),,inactive: -4.93%
O=C1c2[nH]nc(-c3ccccc3O)c2C(c2cccc(Cl)c2)N1Cc1ccco1 (configuration not stated),"inconclusive: 29.1 µM [falling, single point]",
Cc1cccc(/C=N/NC(=O)c2ccccc2OCc2cccc(Br)c2)n1,"inconclusive: 29.1 µM [falling, single point]",
C[C@@H]1CN([C@H](C)CO)C(=O)c2cccc(NC(=O)Nc3ccc(F)cc3)c2O[C@H]1CN(C)C(=O)Nc1ccc(C(F)(F)F)cc1,"inconclusive: 32.6 µM [falling, partial curve, poor fit]",
COc1ccccc1NC(=O)Nc1nc(CC(=O)Nc2cccc(F)c2)cs1,"inconclusive: 29.1 µM [falling, single point]",
Cc1nn(C(C)(C)C)c(OC(=O)C2CCCC2)c1S(=O)(=O)c1ccccc1,,inactive: -16.5%
CC(C)N(C(=O)[C@H]1C[C@H](CC(=O)NCc2cccc(C(F)(F)F)c2)C(=O)N2CCc3c([nH]c4cc(-c5ccco5)ccc34)[C@]12C)C(C)C,"inconclusive: 29.1 µM [falling, partial curve, poor fit]",
C=C1CSc2nc(=O)c3c(C)c(C)sc3n21,,inactive: 1.47%
COC(=O)c1ccc(Nc2cc(C)nc3ccc(C)cc23)cc1,"inconclusive: 10.3 µM [falling, partial curve]",
COc1ccc(Cl)cc1NC(=S)N(CCCN1CCOCC1)Cc1cn(C)c2ccccc12,"inconclusive: 25.9 µM [falling, single point]",

# In the list so far, 3 contain a cyano group:
SMILES,Potency,"activity change, negative = cytotoxicity"
C=CCNc1oc(-c2ccc(OCC)cc2)nc1C#N,,inactive: 0% [at 1.84 µM]
CC1CCc2nc3ncn(CC(=O)Nc4cccc(C#N)c4)c(=O)c3cc2C1 (configuration not stated),,inactive: -26.3%
N#CCCn1cc(C(=O)Nc2ccc(C(=O)O)cc2)c(-c2cccs2)n1,,inactive: -2.95%

# Taken from above:
# COc1ccc(CNC(=O)CCc2ccc(S(=O)(=O)N3CCCCCC3)cc2)cc1OC | activity change, negative = cytotoxicity: inactive: 3.64%
# CCn1cc(S(=O)(=O)c2cccc(Cl)c2)c(=O)c2cc(F)c(N3CCN(C)CC3)cc21 | Potency: inconclusive: 18.4 µM [falling, single point]
